For five molecules, binding results are on record in publication PMC8440562, “MAD2L2 dimerization and TRIP13 control shieldin activity in DNA repair” (Nature Communications, 2021).

Sequences of proteins named here, by UniProt entry; tags and fusion partners are left off.
UniProt Q9UI95: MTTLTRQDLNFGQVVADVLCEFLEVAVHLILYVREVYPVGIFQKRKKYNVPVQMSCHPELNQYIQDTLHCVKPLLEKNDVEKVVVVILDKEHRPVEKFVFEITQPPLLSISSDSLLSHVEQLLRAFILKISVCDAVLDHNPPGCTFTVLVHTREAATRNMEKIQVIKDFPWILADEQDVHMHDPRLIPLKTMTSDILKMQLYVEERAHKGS

These are yes or no findings as the source states them, for the method shown. In cells and extracts the contact can be indirect. Here binding means that the protein was enriched with, or labelled near, the bait; the list need not be complete.

The target in one experiment is GFP-MAD2L2^RR (UniProt Q9UI95). Kind of experiment: affinity purification with mass spectrometry; GFP-Trap IP of GFP-MAD2L2^RR from MAD2L2-depleted HeLa against a GFP control; untreated or 3 h after 25 Gy.
A further experiment concerns the target 3xflag-tagged MAD2L2 (UniProt Q9UI95). In words: affinity purification with mass spectrometry; pulldown of 3xflag-tagged MAD2L2 from 293T transduced with sgNT or sgTRIP13; n = 3.

B1: SHLD2 (endogenous, HeLa) (protein, UniProt Q86V20 1-835)
chain: MSGGSQVHIFWGAPIAPLKITVSEDTASLMSVADPWKKIQLLYSQHSLYLKDEKQHKNLENYKVPESIGSPDLSGHFLANCMNRHVHVKDDFVRSVSETQNIESQKIHSSRLSDITSSNMQICGFKSTVPHFTEEEKYQKLLSENKIRDEQPKHQPDICGKNFNTNLFQLGHKCAAVLDLVCSTEKINIGPEVVQRECVPTEYHEIQNQCLGLFSSNAVDKSRSEAAVRKVSDLKISTDTEFLSIITSSQVAFLAQKKDKRRSPVNKGNVNMETEPKASYGEIRIPEENSIQLDGFTEAYESGQNQAYSLELFSPVCPKTENSRIHINSDKGLEEHTGSQELFSSEDELPPNEIRIELCSSGILCSQLNTFHKSAIKRSCTSEDKVGQSEALSRVLQVAKKMKLISNGGDSAVEMDRRNVSEFKSIKKTSLIKNCDSKSQKYNCLVMVLSPCHVKEINIKFGPNSGSKVPLATVTVIDQSETKKKVFLWRTAAFWAFTVFLGDIILLTDVVIHEDQWIGETVLQSTFSSQLLNLGSYSSIQPEEYSSVVSEVVLQDLLAYVSSKHSYLRDLPPRQPQRVNSIDFVELEHLQPDVLVHAVLRVVDFTILTEAVYSYRGQKQKKVMLTVEQAQDQHYALVLWGPGAAWYPQLQRKKGVVLIKAQISELAFPITASQKIALNAHSSLKSIFSSLPNIVYTGCAKCGLELETDENRIYKQCFSCLPFTMKKIYYRPALMTAIDGRHDVCIRVESKLIEKILLNISADCLNRVIVPSSEITYGMVVADLFHSLLAVSAEPCVLKIQSLFVLDENSYPLQQDFSLLDFYPDIVKHGANARL
Regarding B1, the binding result with GFP-MAD2L2^RR is on record as “binds”.

B2: SHLD2 (endogenous, 293T) (protein, UniProt Q86V20 1-835)
chain: B1 chain
With B2, the binding result with 3xflag-tagged MAD2L2 is listed as “binds”.

B3: SHLD1 (endogenous, 293T) (protein, UniProt Q8IYI0 1-205)
chain: MAARDATSGSLSEESSALDLPSACDIRDYVLQGPSQEANSEAFSSLEFHSFPYSSDVDPDTSNLNIEQNNSWTAENFWLDPAVKGQSEKEEDDGLRKSLDRFYEMFGHPQPGSANSLSASVCKCLSQKITQLRGQESQKYALRSFQMARVIFNRDGCSVLQRHSRDTHFYPLEEGSTSLDDEKPNPGLSKDITHFLLQQNVMKDL
In the case of B3, the binding entry with 3xflag-tagged MAD2L2 was “binds”.

B4: SHLD3 (endogenous, HeLa) (protein, UniProt Q6ZNX1 1-250)
chain: MTTEVILHYRPCESDPTQLPKIAEKAIQDFPTRPLSRFIPWFPYDGSKLPLRPKRSPPVISEEAAEDVKQYLTISEHDAKSHSYDCTVDLLEFQPSLKKQHLTWSHTLKEQTNSGNLGKQSEKGKQHKRRSWSISLPSNNCTKNVSPLSKKLQDSLKALNLHSLYRARWTIEHTICNSQTLEDIWTKLNQIIRHNELPSCNATIQRHLGQIWVFCDIMYCEYVGSLLKGRLALTGKINLFVHKYGVIFSM
Regarding B4, in the experiment with GFP-MAD2L2^RR, the binding result is “binds”.

B5: SHLD3 (endogenous, 293T) (protein, UniProt Q6ZNX1 1-250)
chain: B4 chain
In the case of B5, the binding result with 3xflag-tagged MAD2L2 is listed as “binds”.
